These are yes or no findings as the source states them, for the method shown. Binding seen in cells or lysates may run through a third protein. A yes stands for co-enrichment or nearness to the bait. Other partners may have been found.
molecular target: Y-box binding protein 1 (YB-1) (human (endogenous in A549 and MDA-MB-231)) (UniProt P67809); assay: affinity purification with mass spectrometry; endogenous YB-1 immunoprecipitated with anti-YB-1 (N-terminal) antibody on protein G beads from A549 and MDA-MB-231 lysates in low-detergent RIPA, without cross-linking, and from MDA-MB-231 after in vivo DSP cross-linking; eluted with the immunising peptide; SDS-PAGE, in-gel trypsin digestion, LC-MS/MS

Protein sequences, listed by entry. Tags and fused reporters are not part of them.
UniProt P67809: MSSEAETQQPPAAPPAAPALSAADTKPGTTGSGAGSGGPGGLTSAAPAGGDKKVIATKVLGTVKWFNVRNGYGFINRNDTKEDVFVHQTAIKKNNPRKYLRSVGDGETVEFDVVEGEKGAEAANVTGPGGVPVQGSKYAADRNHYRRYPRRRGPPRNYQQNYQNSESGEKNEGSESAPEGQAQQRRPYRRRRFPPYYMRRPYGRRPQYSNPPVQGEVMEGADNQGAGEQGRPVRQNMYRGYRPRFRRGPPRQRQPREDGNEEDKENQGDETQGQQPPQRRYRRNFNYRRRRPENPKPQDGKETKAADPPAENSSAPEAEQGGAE
UniProt P68371: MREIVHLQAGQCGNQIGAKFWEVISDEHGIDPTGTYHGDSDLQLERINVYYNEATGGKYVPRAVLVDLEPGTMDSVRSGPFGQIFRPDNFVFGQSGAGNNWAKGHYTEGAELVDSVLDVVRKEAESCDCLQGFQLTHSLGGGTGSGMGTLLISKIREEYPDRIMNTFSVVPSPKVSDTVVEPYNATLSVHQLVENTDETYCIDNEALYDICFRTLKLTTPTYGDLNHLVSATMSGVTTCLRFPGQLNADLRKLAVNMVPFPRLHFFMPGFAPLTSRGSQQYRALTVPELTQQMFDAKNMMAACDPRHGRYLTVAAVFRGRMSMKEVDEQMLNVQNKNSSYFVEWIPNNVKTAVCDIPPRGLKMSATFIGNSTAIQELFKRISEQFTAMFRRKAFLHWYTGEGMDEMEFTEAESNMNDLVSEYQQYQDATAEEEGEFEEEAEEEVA
UniProt P26038: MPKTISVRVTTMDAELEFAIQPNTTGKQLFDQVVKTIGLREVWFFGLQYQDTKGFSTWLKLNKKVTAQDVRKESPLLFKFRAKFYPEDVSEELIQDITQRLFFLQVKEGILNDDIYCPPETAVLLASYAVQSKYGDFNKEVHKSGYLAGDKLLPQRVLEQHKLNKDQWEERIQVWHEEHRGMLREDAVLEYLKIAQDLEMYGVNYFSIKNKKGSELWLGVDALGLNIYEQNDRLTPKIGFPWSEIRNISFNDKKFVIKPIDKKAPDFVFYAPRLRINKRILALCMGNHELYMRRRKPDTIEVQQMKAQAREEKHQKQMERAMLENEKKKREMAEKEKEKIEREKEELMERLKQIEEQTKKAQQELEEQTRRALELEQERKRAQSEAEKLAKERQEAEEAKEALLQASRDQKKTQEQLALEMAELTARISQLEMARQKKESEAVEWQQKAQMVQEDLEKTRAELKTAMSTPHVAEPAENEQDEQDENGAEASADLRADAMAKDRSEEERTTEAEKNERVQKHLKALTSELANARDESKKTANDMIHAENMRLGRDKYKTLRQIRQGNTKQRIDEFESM
UniProt P68363: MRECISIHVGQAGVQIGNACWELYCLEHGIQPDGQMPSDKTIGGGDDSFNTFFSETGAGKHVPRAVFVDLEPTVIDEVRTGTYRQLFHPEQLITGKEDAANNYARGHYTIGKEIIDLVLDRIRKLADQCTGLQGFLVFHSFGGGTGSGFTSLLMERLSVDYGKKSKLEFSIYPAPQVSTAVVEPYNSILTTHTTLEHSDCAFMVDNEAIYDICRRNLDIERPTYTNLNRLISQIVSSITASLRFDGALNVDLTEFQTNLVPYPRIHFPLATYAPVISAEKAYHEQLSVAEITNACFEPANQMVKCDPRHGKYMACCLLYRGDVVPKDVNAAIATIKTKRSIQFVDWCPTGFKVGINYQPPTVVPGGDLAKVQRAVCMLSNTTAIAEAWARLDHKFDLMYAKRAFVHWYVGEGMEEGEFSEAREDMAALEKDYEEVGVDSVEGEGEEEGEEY
UniProt P07437: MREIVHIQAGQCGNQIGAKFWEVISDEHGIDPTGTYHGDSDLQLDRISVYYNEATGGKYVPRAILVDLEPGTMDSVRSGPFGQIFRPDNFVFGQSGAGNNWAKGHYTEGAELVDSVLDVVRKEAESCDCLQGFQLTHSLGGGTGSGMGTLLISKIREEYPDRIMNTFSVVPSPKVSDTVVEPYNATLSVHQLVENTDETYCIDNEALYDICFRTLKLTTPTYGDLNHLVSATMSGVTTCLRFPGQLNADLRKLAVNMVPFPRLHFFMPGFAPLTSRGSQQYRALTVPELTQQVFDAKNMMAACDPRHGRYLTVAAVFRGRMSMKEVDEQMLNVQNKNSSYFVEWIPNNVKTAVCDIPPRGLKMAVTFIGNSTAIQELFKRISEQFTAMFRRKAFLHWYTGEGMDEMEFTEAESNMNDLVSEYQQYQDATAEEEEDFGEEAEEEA

binding, binds:
tubulin TUBB4B (from UniProt P68371 1-445), moesin (MSN) (from UniProt P26038 1-577), tubulin TUBA1B (from UniProt P68363 1-451), tubulin TUBB (from UniProt P07437 1-444)

Source: PMC7565962
